No constants are given. Whether binding was seen depends on the method and setting. Binding seen in cells or lysates may run through a third protein. Binding calls can cover weak binding; strength is not graded here. Tags and fused reporters may be left off the sequences shown.
B1: MYC-BCL-3 (protein, UniProt P20749 1-454)
chain: MPRCPAGAMDEGPVDLRTRPKAAGLPGAALPLRKRPLRAPSPEPAAPRGAAGLVVPLDPLRGGCDLPAVPGPPHGLARPEALYYPGALLPLYPTRAMGSPFPLVNLPTPLYPMMCPMEHPLSADIAMATRADEDGDTPLHIAVVQGNLPAVHRLVNLFQQGGRELDIYNNLRQTPLHLAVITTLPSVVRLLVTAGASPMALDRHGQTAAHLACEHRSPTCLRALLDSAAPGTLDLEARNYDGLTALHVAVNTECQETVQLLLERGADIDAVDIKSGRSPLIHAVENNSLSMVQLLLQHGANVNAQMYSGSSALHSASGRGLLPLVRTLVRSGADSSLKNCHNDTPLMVARSRRVIDILRGKATRPASTSQPDPSPDRSANTSPESSSRLSSNGLLSASPSSSPSQSPPRDPPGFPMAPPNFFLPSPSPPAFLPFAGVLRGPGRPVPPSPAPGGS

Biological target: FLAG-TPL-2ΔNES (UniProt Q63562)
Assay: co-IP

Molecule | binding
XP-p105 (from UniProt P19838 1-968) | binds
B1 | binds
